The target in experiment [1] is Skp homolog SKR-1 (C. elegans) (UniProt G5ECU1). Kind of experiment: two-hybrid.
Experiment [2] deals with T1, DLK-1a (C. elegans) (UniProt O01700).
T1 sequence: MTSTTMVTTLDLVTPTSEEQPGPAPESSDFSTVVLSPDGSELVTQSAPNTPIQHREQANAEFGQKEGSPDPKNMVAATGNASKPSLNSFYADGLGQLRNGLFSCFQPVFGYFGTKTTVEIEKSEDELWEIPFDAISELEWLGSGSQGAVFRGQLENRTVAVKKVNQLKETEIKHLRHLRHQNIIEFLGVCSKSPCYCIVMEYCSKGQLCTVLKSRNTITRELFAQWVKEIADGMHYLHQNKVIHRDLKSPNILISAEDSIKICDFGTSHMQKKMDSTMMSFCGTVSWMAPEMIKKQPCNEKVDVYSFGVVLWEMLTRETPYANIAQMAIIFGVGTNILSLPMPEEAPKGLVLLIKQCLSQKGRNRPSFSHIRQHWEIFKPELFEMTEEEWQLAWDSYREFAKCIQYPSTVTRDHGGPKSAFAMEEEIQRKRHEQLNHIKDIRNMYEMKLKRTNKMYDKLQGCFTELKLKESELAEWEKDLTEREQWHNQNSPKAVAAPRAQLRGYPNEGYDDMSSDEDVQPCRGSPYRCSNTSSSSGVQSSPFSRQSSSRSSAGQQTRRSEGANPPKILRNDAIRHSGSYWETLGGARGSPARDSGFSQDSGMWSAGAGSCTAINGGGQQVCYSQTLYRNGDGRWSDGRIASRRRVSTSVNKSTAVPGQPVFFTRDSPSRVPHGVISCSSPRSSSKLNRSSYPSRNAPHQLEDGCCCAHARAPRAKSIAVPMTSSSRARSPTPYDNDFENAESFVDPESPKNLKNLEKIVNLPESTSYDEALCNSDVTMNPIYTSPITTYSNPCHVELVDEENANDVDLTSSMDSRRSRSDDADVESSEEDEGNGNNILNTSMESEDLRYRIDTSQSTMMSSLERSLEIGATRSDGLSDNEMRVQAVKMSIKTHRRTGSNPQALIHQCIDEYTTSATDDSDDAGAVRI
The experiment in a line: two-hybrid.

The chains behind the UniProt entries cited, without tags or fusion partners.
UniProt G5ECU1: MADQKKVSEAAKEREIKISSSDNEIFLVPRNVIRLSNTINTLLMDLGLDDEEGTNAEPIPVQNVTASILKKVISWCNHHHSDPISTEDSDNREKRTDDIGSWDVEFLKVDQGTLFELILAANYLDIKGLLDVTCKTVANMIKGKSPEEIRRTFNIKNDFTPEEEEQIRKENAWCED
UniProt Q22071: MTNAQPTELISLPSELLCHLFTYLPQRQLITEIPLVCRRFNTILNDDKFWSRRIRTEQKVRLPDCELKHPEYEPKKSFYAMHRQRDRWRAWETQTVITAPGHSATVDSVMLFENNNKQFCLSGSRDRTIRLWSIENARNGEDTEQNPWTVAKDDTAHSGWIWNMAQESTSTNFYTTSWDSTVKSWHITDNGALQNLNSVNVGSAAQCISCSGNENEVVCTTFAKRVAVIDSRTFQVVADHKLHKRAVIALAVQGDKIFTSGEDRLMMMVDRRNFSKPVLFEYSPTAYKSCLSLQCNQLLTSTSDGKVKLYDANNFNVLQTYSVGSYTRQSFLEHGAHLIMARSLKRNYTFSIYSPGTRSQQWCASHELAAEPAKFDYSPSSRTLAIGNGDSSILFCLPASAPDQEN

These are yes or no findings as the source states them, for the method shown. Some entries that bind do so weakly or less than the wild type.

Turning to “F-box and WD40 repeat domain-containing protein MEC-15 (from UniProt Q22071 1-406)”, in experiment [1], the binding result is “binds”.
For the substance HSP-90 (from UniProt Q18688 1-702), the binding result in experiment [2] was “binds”.

Values taken from doi:10.1101/2020.02.13.944967.
